The values below come from patent US20060003896A1, “Novel diterpenoid compounds imparting stress resistance to plants” (National Institute of Agrobiological Sciences, priority 2002, published 2006).

Molecules are shown by their SMILES.

The nature of the series: Quantification of endogenous amount of the active substance in tobacco leaves (HPLC).

For the molecule `CC(/C=C/[C@@H]1[C@@]2(C)CCCC(C)(C)[C@@H]2CC[C@@]1(C)O)=C\CO` [WAF-1, (11E,13E)-labda-11,13-diene-8α,15-diol], the “endogenous content in leaves” value was 32±4 ng/g FW (30 minutes after wounding), 60±7 ng/g FW (180 minutes after wounding) and 24 ng/g FW (healthy plant leaves). The “increase of endogenous content after wounding” value is given as 1.3 fold (30 minutes after wounding) and “about 3 fold” (180 minutes after wounding).
